Measured values: PubChem BioAssay AID1347076 (National Center for Advancing Translational Sciences (NCATS), 2019)
In all, about 400,000 compounds went through this assay and about 13,000 (3.2%) were called active. The shares of active, inactive and inconclusive entries below differ from those in the screen. The call rests on the fitted dose curve; in most records, active means well fitted cell-killing curve with a large enough effect; inconclusive means small, poorly fitted or top-dose-only effect, or effect the other way; inactive means flat fitted curve, though single readings scatter. A potency beside an inconclusive call is a rough fit, not a confirmed value.
On the % scale 0 is the no-effect control and ±100 the full control effect; potency means the concentration at half of the fitted maximal effect.

Assay: qHTS assay for MDR1-selective chemotherapeutics: Primary screen using the drug-selected MDR subline cells KB-V1; further: nearly all actives have a fitted effect of over 60% in size
Conditions: KB-V1 MDR cells viability, CellTiter-Glo, 72 h; activity change, negative = cytotoxicity: at 46.1 µM (top of the series)
Method in brief: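 qHTS viability screen in drug-selected KB-V1 MDR cells: 72 h compound treatment at 37 degrees C, ATP luminescence end point.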
For `O=[N+]([O-])c1ccc(Sc2cccc3cccnc23)cc1`, the Potency was inconclusive: 25.9 µM [cytotoxic, single point]. In the case of `Cc1ccc(OCCOCCN2CCN(C)CC2)c(C(C)(C)C)c1`, the Potency is reported as “inactive”. With `O=c1c(-c2ccccc2)c(O)c2c(n1-c1ccccc1)CCCC2` the Potency was inconclusive: 25.9 µM [cytotoxic, partial curve, poor fit]. With `O=C(CN1CCN(S(=O)(=O)c2ccccc2)CC1)N1CCc2ccccc21` the Potency was inconclusive: 20.6 µM [cytotoxic, single point]. In the case of `Cc1cc(NCc2ccccn2)n2ncc(-c3ccc(Cl)cc3)c2n1`, the Potency is reported as inconclusive: 32.6 µM [cytotoxic, single point]. With `Cc1ccccc1Cn1c(=O)n(CCCC(=O)NCc2ccco2)c(=O)c2sccc21` the Potency was inconclusive: 16.4 µM [cytotoxic, single point]. In the case of `Cc1ccc(/C=C/c2nnc(-c3cccs3)o2)cc1`, the Potency is reported as inconclusive: 20.6 µM [cytotoxic, partial curve, poor fit]. In the case of `O=C(Nc1ccccc1)c1ccc(Cn2cc(C(F)(F)F)ccc2=O)cc1`, the Potency is reported as active: 14.6 µM. For `Cc1cc(C(=O)N2CCCC(C(=O)c3cccc4ccccc34)C2)nc(C)n1` (stereo unspecified), the Potency was inconclusive: 16.4 µM [cytotoxic, partial curve]. In the case of `N#Cc1c(-c2ccco2)cc(-c2ccccn2)nc1N`, the Potency is reported as “inactive”. In the case of `CCN(CC)C(=O)c1ccc(S(=O)(=O)N2CCC(c3nc4ccccc4s3)CC2)cc1`, the Potency is reported as active: 7.31 µM. For `O=C(COc1ccc2ccccc2c1)Nc1ccc(Cc2ccncc2)cc1`, the Potency was inconclusive: 29.1 µM [cytotoxic, single point]. For `Cc1cc(C)c(C(N)=O)c(Nc2cccc(Cl)c2C)n1`, the Potency was inconclusive: 29.1 µM [cytotoxic, single point]. In the case of `C=CCNC(=S)Nc1ccc(N2CCOCC2)c(S(=O)(=O)Nc2ccccc2Cl)c1`, the Potency is reported as inconclusive: 29.1 µM [cytotoxic, single point]. In the case of `CCOC(=O)C1=C(C2=CCCCC2)c2ccc(OC)cc2N(S(=O)(=O)C(F)(F)F)C1C(=O)OCC` (stereo unspecified), the Potency is reported as “inactive”. In the case of `CC1(c2ccccn2)Nc2ccccc2-c2nc3ccccc3n21` (stereo unspecified), the Potency is reported as active: 16.4 µM. For `CC(=O)Nc1ccc(NC(=O)c2c(C)nn(Cc3ccccc3)c2Cl)cc1`, the Potency was inconclusive: 16.4 µM [cytotoxic, single point]. In the case of `Cc1cccc(C)c1NC(=O)/C(C#N)=C/c1cccs1`, the Potency is reported as “inactive”. With `Cc1nn(Cc2ccc(Cl)c(Cl)c2)c(C)c1NC(=O)c1sc2ccccc2c1Cl` the Potency was inconclusive: 29.1 µM [cytotoxic, single point]. In the case of `COC(=O)c1c(N2C(=O)[C@H]3[C@@H](C2=O)[C@]2(C(=O)Nc4c2ccc(C)c4C)N2CCC[C@@H]32)sc(C)c1C`, the Potency is reported as inconclusive: 10.3 µM [cytotoxic, partial curve, poor fit]. In the case of `Cc1cc(C)c(NC(=O)CSc2nc3ccc(NC(=O)CSc4nnnn4Cc4ccccc4)cc3s2)c(C)c1`, the Potency is reported as active: 6.51 µM. With `Cn1c(=O)[nH]c2c(cnn2C)c1=O` the Potency was inconclusive: 5.17 µM [rising, partial curve]. For `CC1(c2ccccc2)NC(=O)N(CC(=O)Nc2ccc3c(c2)CCC3)C1=O` (stereo unspecified), the Potency was inconclusive: 5.17 µM [rising, partial curve, poor fit]. In the case of `Cc1ccc(S(=O)(=O)/N=C(/c2ccc(F)cc2)N2CCCC2)cc1`, the Potency is reported as inconclusive: 25.9 µM [cytotoxic, single point]. With `Cc1nc2ccc(NC(=O)c3ccc(S(=O)(=O)N(C)c4ccccc4)cc3)cc2s1` the Potency was inconclusive: 32.6 µM [cytotoxic, single point]. With `CCc1noc(C)c1C(=O)N(Cc1ccccc1)c1c(N)n(CCOC)c(=O)[nH]c1=O` the Potency was inconclusive: 29.1 µM [rising, single point]. With `CCn1nc(C(=O)NNC(=O)CCOc2cc(C)ccc2C)c2ccccc2c1=O` the Potency was inconclusive: 16.4 µM [cytotoxic, single point]. For `Cc1ccccc1NC(=O)Cn1cc(C(=O)C2CC2)c2ccccc21`, the Potency was inconclusive: 0.461 µM [rising, full curve, poor fit]. For `Cc1cccc(C)c1N1CCN(S(=O)(=O)N(C)C)CC1`, the Potency was “inactive”. With `CCc1c(C)nc2nncn2c1NCc1ccccc1` the Potency was inconclusive: 20.6 µM [cytotoxic, single point]. For `COc1ccc(S(=O)(=O)N2CCN(c3cccc(C)c3C)CC2)c2ccccc12`, the Potency was inconclusive: 18.4 µM [cytotoxic, partial curve]. For `COc1ccc(CCNC(=O)CCC(=O)N2CCOc3ccccc32)cc1OC`, the Potency was “inactive”. For `CCOC(=O)N=S(N)(=O)c1ccccc1` (stereo unspecified), the Potency was “inactive”. In the case of `O=c1cccc2c1c1cc[nH]c3ccc(=O)n2c31`, the Potency is reported as inconclusive: 29.1 µM [cytotoxic, single point]. With `Cc1ccc(S(=O)(=O)N(CC(=O)NCCSc2ccc(Cl)cc2)c2ccccc2C)cc1` the Potency was inconclusive: 16.4 µM [cytotoxic, partial curve]. With `Cc1ccnc(NC(=O)Cc2ccc(-c3ccccc3)cc2)c1` the Potency was inconclusive: 29.1 µM [cytotoxic, single point]. With `CC(C)Cc1nc2oc3c(N4CCN(CCO)CC4)ncnc3c2c2c1CCCC2` the Potency was inconclusive: 18.4 µM [cytotoxic, partial curve, poor fit]. With `CCOC(=O)COc1ccc2ccccc2c1/C=C/[N+](=O)[O-]` the Potency was inconclusive: 18.4 µM [cytotoxic, single point]. In the case of `CCCCNC(=S)N/N=C1\C(=O)c2cccc3cccc1c23`, the Potency is reported as inconclusive: 20.6 µM [cytotoxic, single point]. With `O=C(CC1SC(N2CCCC2)=NC1=O)Nc1ccc(C(=O)NCCc2ccc(F)cc2)cc1` (stereo unspecified) the Potency was inconclusive: 23.1 µM [rising, single point]. With `Cc1ccc(S(=O)(=O)c2ccc(Cl)cc2)cc1S(=O)(=O)N1CCN(C)CC1` the Potency was inconclusive: 3.26 µM [cytotoxic, full curve]. For `COc1cccc(/C=C2/CCC(CN(C)C)C2=O)c1` (stereo unspecified), the Potency was inconclusive: 16.4 µM [cytotoxic, partial curve]. In the case of `O=C1CCCC2=C1C(c1ccncc1)c1c(nc(SCc3ccccc3)[nH]c1=O)N2` (stereo unspecified), the Potency is reported as inconclusive: 29.1 µM [rising, single point]. For `COc1c2c(cc3oc(CO[C@@H]4O[C@H](CO)[C@@H](O)[C@H](O)[C@H]4O)cc(=O)c13)O[C@H](C(C)(C)O)C2`, the Potency was “inactive”. For `C=CCOc1ccc(Cl)cc1-c1noc(-c2csc([C@H]3C[C@H](O)[C@@H](CO)O3)n2)n1`, the Potency was “inactive”. In the case of `NC(=O)c1c(NC(=O)c2cc3ccccc3o2)sc2c1CCC2`, the Potency is reported as inconclusive: 18.4 µM [cytotoxic, single point]. With `CCC(CC)c1nnc(NC(=O)CS(=O)(=O)c2ccccc2)s1` the Potency was inconclusive: 18.4 µM [cytotoxic, partial curve, poor fit]. In the case of `Cc1nc[nH]c(=O)c1Br`, the Potency is reported as inconclusive: 18.4 µM [rising, single point]. In the case of `Cc1c(C(=O)NCc2ccccn2)sc(=O)n1Cc1ccc(-c2ccccc2)cc1`, the Potency is reported as inconclusive: 10.3 µM [cytotoxic, partial curve]. With `O=C(O)c1cccc(N2C(=O)/C(=C/c3ccc([N+](=O)[O-])cc3)C=C2c2ccccc2)c1` the Potency was inconclusive: 0.58 µM [rising, full curve, poor fit]. With `CCc1nc2c(OCC(=O)N(C)C)cccn2c1N(C=O)Cc1ccc(OC)cc1` the Potency was “inactive”. With `COC(=O)[C@H](Cc1ccccc1)NC(=O)/C=C/[C@H]1O[C@@H](n2cc(C)c(=O)[nH]c2=O)C[C@@H]1O` the Potency was “inactive”. For `FC(F)(F)c1cccc(NC(=S)NNC(=S)NCc2ccccc2)c1`, the Potency was inconclusive: 29.1 µM [cytotoxic, single point]. In the case of `O=C(CCCc1c[nH]c2ccccc12)Nc1ccc(S(=O)(=O)Nc2ncccn2)cc1`, the activity change, negative = cytotoxicity is reported as inconclusive: 30.8%. In the case of `Cc1cc(NC(=O)c2ccc3nc(-c4ccccc4)c(-c4ccccc4)nc3c2)no1`, the Potency is reported as inconclusive: 6.51 µM [cytotoxic, partial curve, poor fit]. With `CCc1ccc(NC(=O)c2ccc3c(c2)C(=O)N(CCOC)C3Nc2ccc(CC)cc2)cc1` (stereo unspecified) the Potency was inconclusive: 29.1 µM [cytotoxic, single point]. For `O=C(O)CS(=O)CC(=O)Nc1cccc(C(F)(F)F)c1` (stereo unspecified), the Potency was inconclusive: 29.1 µM [rising, single point]. In the case of `CC(C)N1C(=O)c2ccccc2C1C(=O)NCCc1ccccc1` (stereo unspecified), the Potency is reported as inconclusive: 3.66 µM [rising, full curve, poor fit]. For `CCc1nc2c(OCCC3CCCCC3)cccn2c1N(C=O)Cc1ccc(OC)cc1`, the Potency was inconclusive: 9.2 µM [cytotoxic, partial curve]. With `CC(=O)N1CCC(N(Cc2ccco2)C(=O)Nc2ccc(C)c(Cl)c2)CC1` the Potency was inconclusive: 29.1 µM [cytotoxic, single point]. In the case of `CC(C)C(=O)Nc1cc(C(F)(F)F)ccc1N1CCOCC1`, the Potency is reported as “inactive”. In the case of `Cc1cc(C)cc(NC(=O)Cn2cc(C(=O)c3cccs3)c3ccccc32)c1`, the Potency is reported as inconclusive: 16.4 µM [cytotoxic, single point]. In the case of `CCNC(=O)c1ccccc1NC(=O)c1cccc(S(=O)(=O)N2CCOCC2)c1`, the Potency is reported as inconclusive: 16.4 µM [cytotoxic, partial curve]. In the case of `CC(NCc1ccc(F)cc1)C(=O)Nc1cc(S(=O)(=O)N2CCCCC2)ccc1Cl` (stereo unspecified), the Potency is reported as active: 16.4 µM. With `COc1ccc(NC(=O)COC(=O)c2ccc(S(=O)(=O)N3CCCCC3)cc2)c(OC)c1` the Potency was “inactive”. In the case of `Cc1nnc(SCC(=O)N2CCCC(N3CCN(c4ccc(F)cc4)CC3)C2)o1` (stereo unspecified), the Potency is reported as inconclusive: 29.1 µM [cytotoxic, partial curve, poor fit].
